Our source for the log values is the supplement of paper PMC7024190.

The structures appear in SMILES notation. Where a name gives a salt, the structure may show the parent alone. The list shows a part of the results. Repeats in this data set agree poorly, so a single value says little.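 The cells were human embryonic kidney cells carrying a Renilla luciferase gene, driven by the HSV-TK promoter, on a plasmid put in briefly by transfection. This is the first-round screen of about ten thousand compounds, looking for ones that raise reporter output.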

The subject of this experiment is HEK 293FT. Description: log relative Renilla luciferase luminescence (reporter expression vs reference, reference not stated) (log (base not stated)); higher = higher recombinant reporter expression. The settings on record: 10 µM; time after transfection 48 h.
On to `CCN(CC)CCO[C@H]1CC[C@@]2(C)C(=CC[C@@H]3[C@@H]2CC[C@]2(C)C(=O)CC[C@@H]32)C1`, for which the log amounted to 0.0669. To `C[C@@H]1O[C@@H](O[C@H]2C[C@@H](O)[C@]3(CO)[C@H]4[C@H](O)C[C@]5(C)[C@@H](C6=CC(=O)OC6)CC[C@]5(O)[C@@H]4CC[C@]3(O)C2)[C@H](O)[C@H](O)[C@H]1O` [Ouabain] belongs -1.61.

Regarding `CCOC(=O)c1ncn2c1[C@@H]1CCCN1C(=O)c1cc(OC)ccc1-2`, the log was -0.0747. Next, `CCCN1CCC[C@@H]2Cc3n[nH]cc3C[C@H]21` [(-)-Quinpirole hydrochloride]: -0.179; `N[C@@H]1C[C@H]1c1ccccc1` [Tranylcypromine hydrochloride]: -0.0949. To `CC(=O)NCCc1c[nH]c2ccccc12` [N-Acetyltryptamine] belongs 0.072; to `O=[N+]([O-])c1cc(O)c(O)c([N+](=O)[O-])c1`, 0.0941. On to `C=CCN1C[C@H](C)N([C@H](c2ccc(C(=O)N(CC)CC)cc2)c2cccc(O)c2)C[C@H]1C`, for which the log was 0.132. Regarding `CN(C(=O)Cc1ccc(Cl)c(Cl)c1)[C@H](CN1CCCC1)c1ccccc1` [ICI-199,441 hydrochloride], the log was 0.119. Turning to `C=CCN1C[C@H](C)N([C@H](c2ccc(C(=O)N(CC)CC)cc2)c2cccc(OC)c2)C[C@H]1C`, the log is -0.044. Take `Cc1onc(O)c1CC(N)C(=O)O` (racemic) [(RS)-AMPA hydrobromide]: the log turned out to be 0.0534.

For the compound `CC(C)[C@@]1(NC(=O)[C@@H]2C[C@@H]3c4cccc5[nH]cc(c45)C[C@H]3N(C)C2)O[C@@]2(O)[C@@H]3CCCN3C(=O)[C@H](Cc3ccccc3)N2C1=O` [Dihydroergocristine mesylate], the log is 0.195. To `C[C@H](Cc1ccc(OCC(=O)O)cc1)NC[C@H](O)c1cccc(Cl)c1` belongs -0.0231. To `Cc1cc(C)cc(C(=O)OC2C[C@H]3CC[C@@H](C2)N3C)c1` (stereo partly specified) [Tropanyl-3,5-dimethylbenzoate] belongs -0.0488; to `O=C1CSC(c2ccccc2Cl)c2cc(Cl)ccc2N1` (stereo unspecified), 0.143; to `O=C1CN=C(c2cccc(Br)c2)c2oc3ccccc3c2N1`, -0.0323.

As for `O=Cc1cn(Cc2ccc(Cl)cc2)c2ccccc12` [Oncrasin 1], the log amounted to 0.0297.

As to `NP(N)(=O)NC(=O)c1ccc(F)cc1` [Flurofamide], the log was 0.128. With `Fc1ccc(C(OCCN2CCN(CCCc3ccccc3)CC2)c2ccc(F)cc2)cc1`, the log amounted to 0.0801.

With `CNCCc1cnc[nH]1` [N α-Methylhistamine dihydrochloride], the log came to 0.027.

In the case of `CN1C[C@H](C(=O)N[C@]2(C)O[C@@]3(O)[C@@H]4CCCN4C(=O)[C@H](Cc4ccccc4)N3C2=O)C[C@@H]2c3cccc4[nH]cc(c34)C[C@H]21` [Dihydroergotamine mesylate], the log is 0.151.

For the compound `CC(N)Cc1c[nH]c2ccc(O)cc12` (stereo not drawn) [α-Methyl-5-hydroxytryptamine maleate], the log was found to be 0.0399. To `c1ccc(CCCN2CCN(CCOC(c3ccccc3)c3ccccc3)CC2)cc1` belongs -0.0452. For `Cn1c2c(c3ccccc31)CCNCC2`, the log turned out to be 0.0467. Next, `O=c1[nH]c2ccccc2n1C1CCN(CCCC(c2ccc(F)cc2)c2ccc(F)cc2)CC1` [Pimozide]: -0.275; `CCCN(CCC)C1CCc2cccc(O)c2C1` (stereo unspecified) [8-Hydroxy-DPAT hydrobromide]: -0.00324.
